# The exact form of at least one protein or probe is not confirmed.
# Biological target: AraR Y5F (Bacillus subtilis) (UniProt P96711)
# Test: EMSA
# Conditions: 12 mM HEPES-KOH pH 7.6, 10 mM MgCl2, 200 mM NaCl, 4 mM Na2HPO4, 4 mM NaH2PO4, 0.4 mM EDTA, 1 mM DTT, 0.5% BSA, 10% glycerol, 200-fold poly(dI-dC), 1 nM DNA; recombinant protein; label: 5'-32P; probe letters rebuilt from the primers and the genome
sequence,measurement,value
GATTGACAGTATAATAGTCAATTACTATAATAAAATTTTTCGTACAAATATTTATTTATAGGTTTATTTTCTATCATTAGTACGTATCTTTTGTATTTGAAAGCGTTTTATTTTATGAGAAAGGG (double strand) [ORA1 G5->T],Kd,> 2 µM

# Source: PMC4218819
